At least one compound was matched to its structure with a doubt left.
Test system: healthy human plasma
Assay: Blood clotting time prolongation (prothrombin time, steel ball method)
Details: human thromboplastin, 37° C.

CCOc1cc(C(Nc2ccc(C(=N)N)cc2)C(=O)NNC(=O)c2ccccc2Cl)ccc1OCC(C)(C)N.O=C(O)C(F)(F)F (stereo not shown) [Example X-247, 4-[1-[4-(2-Amino-2-methylpropoxy)-3-ethoxyphenyl]-2-[N′-(2-chlorobenzoyl)-hydrazino]-2-oxoethylamino]benzamidine trifluoroacetate]
h PT × 1.1: compound concentration which produced 10% prolongation compared to the control clotting time: 0.80 µM
